One assay deals with PC3 cells. The assay can be described thus: MTT anti-proliferation assay, PC3. Format: cell-based. The note with it: Homo sapiens, PC-3, 48 h, read-out: IC50 tumor cell growth inhibition PC3.
The next assay deals with HL60 cells. The assay can be described thus: MTT anti-proliferation assay, HL60. Format: cell-based. Conditions: Homo sapiens, HL-60, 48 h, read-out: IC50 tumor cell growth inhibition HL60. (Tetrazolium assays rely on reduction of a dye to a coloured formazan, in cell work by metabolically active cells.)
Another assay relates to U937 xenograft. The assay can be described thus: In vivo antitumor assay against U937 xenograft. Set-up: species or system athymic nude mice. The note with it: 100 mg/kg/d intragastric, 16 days.
The next assay deals with MCF7 cells. The assay can be described thus: MTT anti-proliferation assay, MCF7. Format: cell-based. Conditions: Homo sapiens, MCF7, 48 h, read-out: IC50 tumor cell growth inhibition MCF7.
Another assay relates to U937 cells. As to the kind of experiment: MTT anti-proliferation assay, U937. Format: cell-based. Conditions: Homo sapiens, U-937, 48 h, read-out: IC50 tumor cell growth inhibition U937.

As usually defined, the IC50 is the concentration that inhibits the measured activity by half. `O=C(CCCCCCC(=O)Nc1ccccc1)NO` [SAHA, Suberoyl anilide hydroxamic acid, reference compound]: the 50% inhibitory concentration (IC50) in the assay with PC3 cells amounted to 6.33 ± 0.22 µM; in the assay with HL60 cells it was 1.44 ± 0.06 µM; in the assay with MCF7 cells, 5.09 ± 0.21 µM; in the assay with U937 cells, 1.38 ± 0.09 µM. Moreover, in the assay on U937 xenograft, the “inhibitory ratio (tumor weight)” value is 24.97%.
